Results reported in article doi:10.1101/2025.11.13.683933.
Results are given in words; binding and its absence hold for the method and conditions named. In cells and extracts the contact can be indirect. Some results given as binding are weak or reduced against the parent protein; the word gives no strength.

Target: Yes-associated protein 1 (YAP1) (human (endogenous in AGS and GA0518)), P46937
Experiment: co-IP
Settings: remark: other sources report otherwise

binding: binds
B1: TEAD3, Q99594 1-435 (protein)
chain: MASNSWNASSSPGEAREDGPEGLDKGLDNDAEGVWSPDIEQSFQEALAIYPPCGRRKIILSDEGKMYGRNELIARYIKLRTGKTRTRKQVSSHIQVLARKKVREYQVGIKAMNLDQVSKDKALQSMASMSSAQIVSASVLQNKFSPPSPLPQAVFSTSSRFWSSPPLLGQQPGPSQDIKPFAQPAYPIQPPLPPTLSSYEPLAPLPSAAASVPVWQDRTIASSRLRLLEYSAFMEVQRDPDTYSKHLFVHIGQTNPAFSDPPLEAVDVRQIYDKFPEKKGGLKELYEKGPPNAFFLVKFWADLNSTIQEGPGAFYGVSSQYSSADSMTISVSTKVCSFGKQVVEKVETEYARLENGRFVYRIHRSPMCEYMINFIHKLKHLPEKYMMNSVLENFTILQVVTSRDSQETLLVIAFVFEVSTSEHGAQHHVYKLVKD
